# Measurements from PubChem BioAssay AID2685 (National Center for Advancing Translational Sciences (NCATS), 2010).
# This is one part of the list. Shown are side measurements of this screen, not its main read-out; they come without a call. Most of these compounds were active or inconclusive in the main read-out, so they are no random draw. Potencies come from curve fits of mixed quality, noted in brackets.
# Test: qHTS Assay for Lipid Storage Modulators in Drosophila S3 Cells;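 on cell number change: cells counted by Cell Tracker Red CMTPX staining in the red channel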
# Conditions: BODIPY lipid droplet fluorescence, 18-24 h; for cell number change: measured here: cell count max response, cells fed with added oleic acid
# In short: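 Laser-scanning cytometry quantifies lipid droplet accumulation (500–530 nm total intensity; droplet/cell object ratio) in oleic acid-fed (400 uM added) Drosophila S3 cells treated with a concentration series. 20 uM Triacsin C defined 100% inhibition.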
# [1] = measured here: lipid fluorescence (Fed channel) AC50, cells fed with added oleic acid
# [2] = measured here: cell number channel AC50, cells fed with added oleic acid
SMILES,cell number change,AC50 [1],AC50 [2]
CCCOc1ccc(C(=O)Nc2ccc(CN3CCOCC3)cc2)cc1,-11.4%,"29.1 µM [rising, single point]",–
COCCNC(=O)C(c1ccco1)N(C(=O)Cn1nnc2ccccc21)c1ccccc1C (centres undefined),–,–,"5.17 µM [falling, partial curve]"
CCn1c(=O)c(-[n+]2ccccc2)c(O)c2ccccc21,7.35%,"29.1 µM [falling, single point]",–
COc1cc(-c2nc(C(=O)NCC3CCCO3)cc3c2[nH]c2ccccc23)cc(OC)c1OC (centres undefined),-22.7%,"18.4 µM [falling, partial curve]",–
Cc1cc(C)c2c(c1)-c1c(ssc1=S)C(C)(C)N2C(=O)CSc1nncn1C,-27.5%,"25.9 µM [falling, partial curve]",–
CCOc1ccc(NC(=O)CCC(=O)NNS(=O)(=O)c2ccccc2[N+](=O)[O-])cc1,2.33%,"29.1 µM [falling, single point]",–
COc1ccc(C(=O)NC(=S)NNC(=O)CCc2ccccc2)cc1,-19.3%,"29.1 µM [falling, single point]",–
COc1ccccc1-c1nnc(SCC(=O)Nc2ccc3[nH]c(=O)[nH]c3c2)n1N,-9.73%,"0.00461 µM [falling, full curve, poor fit]",–
O=C(N/N=C/c1ccccn1)c1ccc(NC(=O)c2ccc(F)cc2)cc1,16.2%,"0.58 µM [falling, single point]",–
CCN1CC2([N+](=O)[O-])CC=C(OC)C([N+](=O)[O-])(C1)C2 (centres undefined),8.75%,"6.51 µM [falling, full curve, poor fit]",–
COc1ccc(CC(=O)Nc2ccncc2Cl)cc1,40%,–,"29.1 µM [rising, single point]"
CC(C)c1ccc(CNn2cnnc2)cc1,11.7%,–,–
O=C(N/N=C/c1c(Cl)cccc1Cl)c1ccc(-n2cnnn2)cc1,-2.34%,"7.31 µM [rising, partial curve, poor fit]",–
N#Cc1cc2c(nc1SC1CC(=O)N(c3ccccc3)C1=O)CCC2 (centres undefined),31.3%,"1.16 µM [rising, full curve]","5.17 µM [rising, partial curve]"
Cc1cc(NC(=O)Nc2cccc(Cl)c2)n(-c2ccccn2)n1,19%,"6.51 µM [rising, partial curve]","6.51 µM [rising, single point]"
O=C(Nc1cccc(C(F)(F)F)c1)n1cc(-c2ccccn2)c(N2CCOCC2)n1,-26.1%,–,–
O=C(OCN1C(=O)c2ccccc2C1=O)c1cccs1,-14.4%,–,–
CCOC(=O)N1CCN(CC(=O)c2ccc3c(c2)CCN3C(C)=O)CC1,–,"4.11 µM [falling, single point]","3.66 µM [falling, single point]"
Cc1c(/C=N/NC(N)=O)c2ccccn2c1C(=O)c1ccc(F)cc1,-19%,–,–
COc1cccc(C(=O)NC(C)c2ccc(Br)cc2)c1 (centres undefined),11.7%,"0.58 µM [rising, full curve]",–

SMILES,cell number change,AC50 [1],AC50 [2]
CCOc1ccc2c(c1)-c1c(ssc1=S)C(C)(C)N2C(=O)c1ccco1,-73.1%,"7.31 µM [falling, partial curve]","9.2 µM [falling, partial curve]"
CC1(C)Cc2c(cnn2-c2ccc(F)cc2)C(NC(=O)c2ccco2)C1 (centres undefined),-1.52%,"29.1 µM [falling, single point]",–
O=c1[nH]c(/C(=N\O)c2ccccc2)no1,-11.1%,"0.0731 µM [falling, full curve, poor fit]",–
CN(Cc1ccco1)C(=O)C(Cc1ccccc1)NS(=O)(=O)c1ccc2c(c1)CCC(=O)N2 (centres undefined),-42.4%,"16.4 µM [falling, single point]","29.1 µM [falling, single point]"
OCCN=c1cc(-c2ccccc2)oc2ccc(Cl)cc12,-19.1%,"0.259 µM [falling, partial curve, poor fit]","0.164 µM [falling, full curve, poor fit]"
C=CCn1c(O)c(N=NC(=S)Nc2cccc(C)c2)c2ccccc21,-77%,"13 µM [falling, partial curve]","16.4 µM [falling, partial curve]"
O=C(COC(=O)c1cc(=O)[nH]c2ccccc12)c1cccs1,1.19%,"6.51 µM [falling, single point]",–
Cc1ncoc1C(=O)N1CCCC(C(=O)c2ccc(-c3ccccc3)cc2)C1 (centres undefined),-22.8%,–,–
C=CCN(CC=C)Cc1c(C)[nH]c2c(C)c(C)ccc2c1=O,0.594%,"0.184 µM [rising, full curve, poor fit]",–
CCOc1ccc(-c2csc(NNC3=NCCCCC3)n2)cc1,-47.1%,"29.1 µM [falling, single point]","29.1 µM [falling, single point]"
Cc1csc(NC(=O)COCC(=O)O)c1-c1nc2ccccc2s1,43.5%,"14.6 µM [rising, single point]","16.4 µM [rising, single point]"
CC(C)(C)OC(=O)N/N=C\c1ccc(OC(=O)c2ccco2)cc1,0.903%,"0.517 µM [falling, partial curve, poor fit]","0.58 µM [falling, single point]"
Cc1cccc(-n2ncc3c2CCCC3NC(=O)Cc2c(C)noc2C)c1C (centres undefined),-51.1%,"20 µM [falling, partial curve]","35.5 µM [falling, single point]"
COC(=O)c1ccc(/C=N/N2C(C)CCCC2C)cc1 (centres undefined),50.1%,"13 µM [rising, partial curve]",–
c1ccc(Nc2nc(-c3ccccn3)cs2)cc1,-24.6%,"7.31 µM [rising, partial curve]",–
O=C(O)COc1ccccc1/C=N/NC(=O)c1cccc(S(=O)(=O)Nc2cccc(Cl)c2)c1,48.1%,–,"1.64 µM [rising, partial curve, poor fit]"
Cc1cc(C)cc(N=c2c([N+](=O)[O-])nn(-c3ccc4c(c3)OCCO4)n2O)c1,-56.8%,"29.1 µM [falling, single point]","29.1 µM [falling, single point]"
O=C(COC(=O)CCC(=O)c1cccs1)Nc1ccc(S(=O)(=O)N2CCOCC2)cc1,-6.48%,"6.51 µM [rising, single point]",–
O=C(Nc1ccc(CN2CCOCC2)cc1)c1cc2ccccn2n1,10.6%,"36.6 µM [rising, partial curve, poor fit]",–
Cc1ccc(NS(=O)(=O)c2c(C(=O)N3CCOCC3)c(C)n(C)c2C)cc1,18.5%,–,–

SMILES,cell number change,AC50 [1],AC50 [2]
CO/N=C/Cc1c([N+](=O)[O-])c(C)nn1C,5.23%,–,"2.31 µM [falling, single point]"
S=C1NCCOCCOCCOCCOCCN1,–,"0.366 µM [falling, full curve]",–
O=C(NCCCN1CCCC1=O)c1cccc(N2CCCC2=O)c1,–,"0.164 µM [falling, full curve, poor fit]",–
COc1ccccc1-c1nnc2sc(C3CCCCC3)nn12,-17.8%,"29.1 µM [rising, single point]",–
CCn1c(-c2cc(Cl)ccc2OC)n[nH]c1=S,-9.19%,"0.184 µM [rising, full curve, poor fit]",–
Cc1c(C=O)c(=O)n(-c2ccccc2)n1-c1ccccc1,1.88%,"0.116 µM [falling, full curve, poor fit]",–
Cc1c(Cl)cccc1NC(=O)C(=O)NNC(=O)c1ccccc1F,21.5%,"2.91 µM [rising, single point]",–
CCOc1ccc(NC(=O)CNC(=O)c2ccc(OC)c(OC)c2)cc1,52.6%,"0.00517 µM [falling, full curve, poor fit]","11.6 µM [rising, partial curve]"
CCOc1ccc(-c2nc[nH]c2[N+](=O)[O-])cc1,3.38%,"8.2 µM [falling, partial curve, poor fit]",–
CCOC(=O)C1CCN(C(=O)c2ccc3c(Cl)c4c(nc3c2)CCCC4)CC1,18.5%,"0.58 µM [falling, single point]",–
COCCOC(=O)C1=C(C)NC(=O)NC1c1cccc(F)c1 (centres undefined),-16.4%,"0.231 µM [rising, full curve, poor fit]",–
OCCC#Cc1ccc(CN2CCN(Cc3ccccc3)C(CCO)C2)cc1 (centres undefined),5.48%,"0.00461 µM [falling, full curve, poor fit]",–
COc1ccc(-c2csc3nc(-c4ccccc4OC)oc(=O)c23)cc1,-12.1%,"18.4 µM [falling, partial curve, poor fit]",–
O=C(NCc1nnc2c(C(F)(F)F)cc(Cl)cn12)C1CCCC1,-2.02%,–,–
Cc1cc(NC(=O)C23CCC(C)(C(=O)O2)C3(C)C)no1 (centres undefined),-72%,–,"29.1 µM [falling, single point]"
O=C(c1ccc([N+](=O)[O-])cc1)N(Cc1ccccc1)c1ccccn1,18.5%,–,–
COc1cccc(CNC(=O)C2CCN(S(=O)(=O)c3ccc4c(c3)NC(=O)CO4)CC2)c1,-47.2%,–,"29.1 µM [falling, single point]"
CCC(C)(C)NC(=S)Nc1ccccc1C,4.43%,–,–
O=C(Nc1ccccc1F)c1ccc([N+](=O)[O-])s1,-45.8%,"18.4 µM [falling, single point]","32.6 µM [falling, single point]"

# 15 consecutive records already listed, for reference:
SMILES,cell number change,AC50 [1],AC50 [2]
CO/N=C/Cc1c([N+](=O)[O-])c(C)nn1C,5.23%,–,"2.31 µM [falling, single point]"
S=C1NCCOCCOCCOCCOCCN1,–,"0.366 µM [falling, full curve]",–
O=C(NCCCN1CCCC1=O)c1cccc(N2CCCC2=O)c1,–,"0.164 µM [falling, full curve, poor fit]",–
COc1ccccc1-c1nnc2sc(C3CCCCC3)nn12,-17.8%,"29.1 µM [rising, single point]",–
CCn1c(-c2cc(Cl)ccc2OC)n[nH]c1=S,-9.19%,"0.184 µM [rising, full curve, poor fit]",–
Cc1c(C=O)c(=O)n(-c2ccccc2)n1-c1ccccc1,1.88%,"0.116 µM [falling, full curve, poor fit]",–
Cc1c(Cl)cccc1NC(=O)C(=O)NNC(=O)c1ccccc1F,21.5%,"2.91 µM [rising, single point]",–
CCOc1ccc(NC(=O)CNC(=O)c2ccc(OC)c(OC)c2)cc1,52.6%,"0.00517 µM [falling, full curve, poor fit]","11.6 µM [rising, partial curve]"
CCOc1ccc(-c2nc[nH]c2[N+](=O)[O-])cc1,3.38%,"8.2 µM [falling, partial curve, poor fit]",–
CCOC(=O)C1CCN(C(=O)c2ccc3c(Cl)c4c(nc3c2)CCCC4)CC1,18.5%,"0.58 µM [falling, single point]",–
COCCOC(=O)C1=C(C)NC(=O)NC1c1cccc(F)c1 (centres undefined),-16.4%,"0.231 µM [rising, full curve, poor fit]",–
OCCC#Cc1ccc(CN2CCN(Cc3ccccc3)C(CCO)C2)cc1 (centres undefined),5.48%,"0.00461 µM [falling, full curve, poor fit]",–
COc1ccc(-c2csc3nc(-c4ccccc4OC)oc(=O)c23)cc1,-12.1%,"18.4 µM [falling, partial curve, poor fit]",–
O=C(NCc1nnc2c(C(F)(F)F)cc(Cl)cn12)C1CCCC1,-2.02%,–,–
Cc1cc(NC(=O)C23CCC(C)(C(=O)O2)C3(C)C)no1 (centres undefined),-72%,–,"29.1 µM [falling, single point]"
